Source: the ROBIN nucleic acid binder screens (doi:10.1002/anie.202211358).

Oligonucleotides screened, 5′ to 3′:
SAM-II: SAM-II riboswitch RNA pseudoknot, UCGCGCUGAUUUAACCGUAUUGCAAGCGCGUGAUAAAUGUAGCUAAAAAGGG. Hit rate about 1% of about 21,000 compounds.
TPP: TPP riboswitch RNA three-way junction, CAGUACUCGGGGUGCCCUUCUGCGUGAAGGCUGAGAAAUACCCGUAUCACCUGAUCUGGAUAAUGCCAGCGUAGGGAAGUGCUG. Hit rate about 0.7% of about 24,000 compounds.
PreQ1: PreQ1 riboswitch RNA pseudoknot, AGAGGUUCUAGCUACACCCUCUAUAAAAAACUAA. From B. subtilis. Hit rate about 0.7% of about 24,000 compounds.

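Each compound is printed as two spots on a slide made to bind it covalently, so it has no test concentration; the read-out is fluorescence of the bound, labelled oligonucleotide. The data file lists only calls. An earlier report of the laboratory on the PreQ1, TPP and SAM-II riboswitches (doi:10.1038/s41467-019-09493-3) used 1 µM RNA for 2 h and required a mean Z-score above 3 (spot signal-to-noise against the whole library), a score well above that on a control array, and duplicate spots agreeing (coefficient of variation under 100); it then also set aside compounds that hit other targets, which this list keeps. The cut-offs behind this list may differ. The calls come from the array alone, and fixing a compound to the slide can hide its binding.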
“hit” means called a hit, “no hit” means screened and not called a hit.
The compounds are a random part of those screened.
A target missing from an entry has no call listed here.
A dash means that no call is listed here.

compound: O=c1c(Nc2ccc(F)c(Cl)c2)c(-c2ccccc2)c1=O
TPP: no hit
PreQ1: no hit

compound: Cc1ccccc1CN1c2ccccc2C2=C(C(c3cccnc3)C(C#N)=C(N)O2)S1(=O)=O (centres undefined)
TPP: no hit
PreQ1: no hit

compound: Cc1ccc(CNc2ccc(Cl)nn2)cc1
SAM-II: no hit
TPP: no hit
PreQ1: no hit

compound: CCOC(=O)c1cnc2c(OC)cccc2c1Nc1ccc(N(C)C)cc1
SAM-II: no hit
TPP: no hit
PreQ1: no hit

compound: CN1CCC(n2nc(C3CCOC3)nc2CNC2CC2)CC1 (centres undefined)
SAM-II: no hit
TPP: no hit
PreQ1: no hit

compound: Cc1ccc(-c2csc3ncnc(Nc4cccc(C(=O)O)c4)c23)cc1
SAM-II: no hit
TPP: no hit
PreQ1: no hit

compound: Cc1nn2cc(CNc3nc(C4CC4)nc4c3CCNCC4)nc2s1
SAM-II: no hit
TPP: no hit
PreQ1: no hit

compound: Cc1ncc(CO)c(CN2C[C@H](N)C[C@H]2C(=O)NC(C)C)c1O
SAM-II: no hit
TPP: no hit
PreQ1: no hit

compound: COc1cc(-c2nn(C3CCC(N4CCN(C(C)=O)CC4)CC3)c3ncnc(N)c23)ccc1NC(=O)c1cc2ccccc2n1C (centres undefined)
SAM-II: no hit
TPP: no hit
PreQ1: no hit

compound: COc1ccc(-c2cnc(NCc3cccc(C)c3)n2C)cc1
SAM-II: no hit
TPP: no hit
PreQ1: no hit

compound: Cc1ccccc1NC1CC(C)Nc2c(C)cccc21 (centres undefined)
SAM-II: no hit
TPP: no hit
PreQ1: no hit

compound: COC(=O)C1=C(N)OC2=C(C(=O)CCC2)C12C(=O)N(C)c1ccccc12 (centres undefined)
SAM-II: no hit
TPP: no hit
PreQ1: no hit

compound: CCN(CC)c1ccc(Nc2nc(-c3c(C)nc4sccn34)cs2)cc1
SAM-II: no hit
TPP: no hit
PreQ1: no hit

compound: CC(=O)NCCNc1cc(OC(C)C)nc(N)n1
SAM-II: no hit
TPP: no hit
PreQ1: no hit

compound: N[C@@H](Cc1c[nH]cn1)C(=O)N1CCCN(c2ccccc2)CC1
SAM-II: no hit
TPP: no hit
PreQ1: no hit

compound: NC1=C(c2nc(-c3ccccc3)cs2)C(=O)CN1CCN1CCOCC1
TPP: no hit
PreQ1: no hit

compound: c1nc(NCCN2CCOCC2)c2sc3nc(N4CCOCC4)c4c(c3c2n1)CCCC4
SAM-II: no hit
TPP: no hit
PreQ1: no hit

compound: COc1ccc(-c2csc(Nc3ccc(C(=O)O)cc3)n2)cc1OC
SAM-II: no hit
TPP: no hit
PreQ1: no hit

compound: CC(C)c1cc(Nc2cc(F)ccc2F)n2nc(-c3cccnc3)nc2n1
TPP: no hit
PreQ1: no hit

compound: C[C@@]1(O)CCN(C(=O)CCCc2cccs2)C[C@@H]1O
SAM-II: no hit
TPP: no hit
PreQ1: no hit

compound: COc1ccc(-n2cccn2)c(-c2cn(CC3CNCCO3)nn2)c1 (centres undefined)
SAM-II: no hit
TPP: no hit
PreQ1: no hit

compound: CN1CCN(Cc2ccc(NC(=O)Nc3ccc(Oc4cc(NC(=O)C5CC5)ncn4)cc3)cc2C(F)(F)F)CC1
SAM-II: no hit
TPP: no hit
PreQ1: no hit

compound: Cc1nc(N(C)C)ncc1C(=O)N1CC[C@H](N2CCOCC2)[C@H](CCCO)C1
SAM-II: no hit
TPP: no hit
PreQ1: no hit

compound: O=c1cc(N2CCNCC2)cnn1Cc1ccccc1-n1cccn1
SAM-II: no hit
TPP: no hit
PreQ1: no hit

compound: CCOC(=O)N1CCN(c2c(Nc3ccc4c(c3)OCCO4)c(=O)c2=O)CC1
TPP: no hit
PreQ1: no hit

compound: COc1ccc(CNCc2ccccc2OC)cc1
SAM-II: no hit
TPP: no hit
PreQ1: no hit

compound: COC(C)c1ccc(-c2ccc(NC(=O)CN)c(F)c2)cc1 (centres undefined)
SAM-II: hit
TPP: no hit
PreQ1: no hit

compound: Cc1nc(C)c(CC(=O)N2C[C@@H](CN3CCCN(C)CC3)[C@@H](CO)C2)s1
SAM-II: no hit
TPP: no hit
PreQ1: no hit

compound: Cc1ccc(-c2cn3c4ccccc4nc3n2CCCO)cc1
SAM-II: no hit
TPP: no hit
PreQ1: no hit

compound: Clc1cccc(-c2ccc(CNc3nc[nH]n3)o2)c1
SAM-II: no hit
TPP: no hit
PreQ1: no hit

compound: c1ccc2c(Nc3ccc4c(c3)OCCO4)c3c(nc2c1)CCCC3
SAM-II: no hit
TPP: no hit
PreQ1: no hit

compound: COC(=O)c1ccccc1Nc1c(-c2cc(Br)ccc2O)nc2cnccn12
TPP: no hit
PreQ1: no hit

compound: COC(=O)c1ccccc1Nc1c(-c2ccccc2)c(=O)c1=O
TPP: no hit
PreQ1: no hit

compound: CCC(=O)C1=C(NCCc2c(C)[nH]c3ccc(C)cc23)CC(C)(C)CC1=O
SAM-II: no hit
TPP: no hit
PreQ1: no hit

compound: CCOC(=O)Cc1ccc2nc(C)n(CO)c2c1
SAM-II: no hit
TPP: no hit
PreQ1: no hit

compound: CCC#CCN1CCC[C@]2(CO)CN(Cc3cccc(O)c3)CC[C@@H]12
SAM-II: no hit
TPP: no hit
PreQ1: no hit

compound: CC(=O)c1c(C)nn(CC(=O)N2C[C@@H](CN(C)CCO)[C@@H](CO)C2)c1C
SAM-II: no hit
TPP: no hit
PreQ1: no hit

compound: CC(C)(C)c1n[nH]c2c1C1(C(=O)Nc3ccc(Cl)cc31)C(C#N)=C(N)O2 (centres undefined)
SAM-II: no hit
TPP: no hit
PreQ1: no hit

compound: CN(Cc1cc(-c2ccccc2)no1)C(=O)c1ccc2c(c1)CCNC2
SAM-II: no hit
TPP: no hit
PreQ1: no hit

compound: COC(=O)CCCNc1cc(C)nc2nc(-c3ccccc3C)nn12
TPP: no hit
PreQ1: no hit

compound: CC12CCC(/C(=N/c3ccc(/N=C4\C(=O)C5(C)CCC4C5(C)C)cc3)C1=O)C2(C)C
SAM-II: no hit
TPP: no hit
PreQ1: no hit

compound: CC1=C(c2ccc(C)cc2)S(=O)(=O)N=C1Nc1ccc(Br)cn1
TPP: no hit
PreQ1: no hit

The last 3 entries again:

| compound | SAM-II | TPP | PreQ1 |
|---|---|---|---|
| `COC(=O)CCCNc1cc(C)nc2nc(-c3ccccc3C)nn12` | - | no hit | no hit |
| `CC12CCC(/C(=N/c3ccc(/N=C4\C(=O)C5(C)CCC4C5(C)C)cc3)C1=O)C2(C)C` | no hit | no hit | no hit |
| `CC1=C(c2ccc(C)cc2)S(=O)(=O)N=C1Nc1ccc(Br)cn1` | - | no hit | no hit |